Earlier results on one compound are cited in US6407239B1, “Aromatic esters of camptothecins and methods to treat cancers” (priority 1999, dated 2002).

The conditions of the series: cited from earlier work.

Each structure is given as a SMILES string.

As for `CC[C@@]1(O)C(=O)OCc2c1cc1n(c2=O)Cc2cc3ccccc3nc2-1` [Camptothecin], the solubility in water entry is given as “insoluble in water”.
